The target of this assay is T1, activity-regulated cytoskeleton-associated (Arc) protein, endogenous (mouse (endogenous in hippocampus)) (UniProt Q9WV31).
T1 sequence: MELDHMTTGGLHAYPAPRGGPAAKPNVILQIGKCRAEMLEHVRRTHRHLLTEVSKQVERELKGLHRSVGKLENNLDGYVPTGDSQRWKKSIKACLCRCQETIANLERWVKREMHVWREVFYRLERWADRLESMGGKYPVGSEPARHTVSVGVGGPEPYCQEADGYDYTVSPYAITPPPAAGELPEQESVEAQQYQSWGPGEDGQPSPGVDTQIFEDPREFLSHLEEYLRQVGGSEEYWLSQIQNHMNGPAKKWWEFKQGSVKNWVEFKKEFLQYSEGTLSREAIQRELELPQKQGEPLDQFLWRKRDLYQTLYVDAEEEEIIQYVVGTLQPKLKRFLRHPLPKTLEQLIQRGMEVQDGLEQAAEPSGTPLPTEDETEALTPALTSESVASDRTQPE
Put plainly: affinity purification with mass spectrometry; endogenous Arc immunoprecipitated from mouse hippocampal lysate with rabbit polyclonal anti-Arc antibody and protein G agarose beads, 3 h at 4°C; control: beads without antibody; in-gel tryptic digestion, LTQ-Orbitrap Velos; repeated twice.

By UniProt entry, the sequences of proteins in these tests, tags left out.
UniProt P28652: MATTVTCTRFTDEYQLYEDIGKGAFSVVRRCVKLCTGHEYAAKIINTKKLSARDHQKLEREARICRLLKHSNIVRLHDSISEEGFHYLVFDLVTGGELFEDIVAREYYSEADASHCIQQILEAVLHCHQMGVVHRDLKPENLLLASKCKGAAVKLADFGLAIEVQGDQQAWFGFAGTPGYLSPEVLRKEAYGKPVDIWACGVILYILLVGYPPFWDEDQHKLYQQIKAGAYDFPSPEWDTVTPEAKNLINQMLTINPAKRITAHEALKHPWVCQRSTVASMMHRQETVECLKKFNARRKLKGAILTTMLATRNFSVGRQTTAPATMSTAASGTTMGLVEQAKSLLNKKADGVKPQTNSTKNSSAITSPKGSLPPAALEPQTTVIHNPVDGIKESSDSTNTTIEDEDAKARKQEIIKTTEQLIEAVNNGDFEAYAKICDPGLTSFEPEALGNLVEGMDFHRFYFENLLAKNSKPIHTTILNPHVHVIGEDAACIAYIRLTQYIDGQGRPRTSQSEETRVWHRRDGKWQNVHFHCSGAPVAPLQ

These are yes or no findings as the source states them, for the method shown. Binding seen in cells or lysates may run through a third protein. Here binding means that the protein was enriched with, or labelled near, the bait; the list need not be complete.

In the case of “CamKII β subunit, endogenous (from UniProt P28652 1-542)”, the binding entry is “binds”.

B1: dynamin 1, endogenous (protein, UniProt P39053-6 1-864)
chain: MGNRGMEDLIPLVNRLQDAFSAIGQNADLDLPQIAVVGGQSAGKSSVLENFVGRDFLPRGSGIVTRRPLVLQLVNSTTEYAEFLHCKGKKFTDFEEVRLEIEAETDRVTGTNKGISPVPINLRVYSPHVLNLTLVDLPGMTKVPVGDQPPDIEFQIRDMLMQFVTKENCLILAVSPANSDLANSDALKIAKEVDPQGQRTIGVITKLDLMDEGTDARDVLENKLLPLRRGYIGVVNRSQKDIDGKKDITAALAAERKFFLSHPSYRHLADRMGTPYLQKVLNQQLTNHIRDTLPGLRNKLQSQLLSIEKEVDEYKNFRPDDPARKTKALLQMVQQFAVDFEKRIEGSGDQIDTYELSGGARINRIFHERFPFELVKMEFDEKELRREISYAIKNIHGIRTGLFTPDMAFETIVKKQVKKIREPCLKCVDMVISELISTVRQCTKKLQQYPRLREEMERIVTTHIREREGRTKEQVMLLIDIELAYMNTNHEDFIGFANAQQRSNQMNKKKTSGNQVIRKGWLTINNIGIMKGGSKEYWFVLTAENLSWYKDDEEKEKKYMLSVDNLKLRDVEKGFMSSKHIFALFNTEQRNVYKDYRQLELACETQEEVDSWKASFLRAGVYPERVGDKEKASETEENGSDSFMHSMDPQLERQVETIRNLVDSYMAIVNKTVRDLMPKTIMHLMINNTKEFIFSELLANLYSCGDQNTLMEESAEQAQRRDEMLRMYHALKEALSIIGDINTTTVSTPMPPPVDDSWLQVQSVPAGRRSPTSSPTPQRRAPAVPPARPGSRGPAPGPPPAGSALGGAPPVPSRPGASPDPFGPPPQVPSRPNRAPPGVPSRKGPASPTRPAAPRPTEAPLLDL
With B1, the binding entry is “binds”.
